No constants are given. Whether binding was seen depends on the method and setting. For part of these data: Binding seen in cells or lysates may run through a third protein. Some results given as binding are weak or reduced against the parent protein; the word gives no strength.
What was measured:
[1] = biological target: T1, Recombinant C4.4A (5428-C4-050, R&D Systems) (Homo sapiens (Human)) (UniProt O95274); experiment: co-immunoprecipitation of purified recombinant proteins (2 ug each) with anti-AGR2 antibody, western blot for C4.4A
T1 sequence: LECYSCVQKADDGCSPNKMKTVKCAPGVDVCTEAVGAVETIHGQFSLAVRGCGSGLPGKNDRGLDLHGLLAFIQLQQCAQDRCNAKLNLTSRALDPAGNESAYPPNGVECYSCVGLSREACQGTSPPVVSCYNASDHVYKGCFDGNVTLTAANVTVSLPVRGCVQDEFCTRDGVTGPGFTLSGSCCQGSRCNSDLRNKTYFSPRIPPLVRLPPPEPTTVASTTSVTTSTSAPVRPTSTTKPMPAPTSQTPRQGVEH

Chains of the proteins cited; added tags and fusions are not shown. Lines headed by an entry give the natural chain unless they say otherwise; changes in a name come on top.
UniProt O95994: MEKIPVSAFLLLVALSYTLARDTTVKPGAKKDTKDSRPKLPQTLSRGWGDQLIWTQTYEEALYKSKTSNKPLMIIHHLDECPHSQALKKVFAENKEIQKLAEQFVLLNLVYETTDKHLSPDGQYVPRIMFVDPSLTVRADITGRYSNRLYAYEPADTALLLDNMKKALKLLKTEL

[2] = biological target: T1, Recombinant C4.4A (5428-C4-050, R&D Systems) (Homo sapiens (Human)); experiment: co-immunoprecipitation of purified recombinant proteins (FIG. 2B)
[3] = biological target: T1, Recombinant C4.4A (5428-C4-050, R&D Systems) (Homo sapiens (Human)); experiment: IP of combined recombinant proteins with anti-AGR2 antibody, western blot for C4.4A (FIG. 8D)

Measured: binding

human recombinant AGR2 (rAGR2) (ab64013, AbCam) (from UniProt O95994 21-175) (ligand)
binds: all assays above
